Laboratory results as given in paper PMC7998727.

Chains of the proteins cited; added tags and fusions are not shown. Lines headed by an entry give the natural chain unless they say otherwise; changes in a name come on top.
UniProt O75792: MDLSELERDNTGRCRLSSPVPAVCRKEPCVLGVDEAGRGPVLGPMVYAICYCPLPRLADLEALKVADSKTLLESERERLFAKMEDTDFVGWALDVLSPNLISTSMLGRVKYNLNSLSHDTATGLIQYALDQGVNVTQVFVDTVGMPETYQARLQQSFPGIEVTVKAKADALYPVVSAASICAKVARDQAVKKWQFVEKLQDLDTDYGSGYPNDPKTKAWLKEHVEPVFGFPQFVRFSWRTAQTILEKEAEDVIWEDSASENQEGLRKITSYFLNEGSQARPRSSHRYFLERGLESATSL
UniProt P50990: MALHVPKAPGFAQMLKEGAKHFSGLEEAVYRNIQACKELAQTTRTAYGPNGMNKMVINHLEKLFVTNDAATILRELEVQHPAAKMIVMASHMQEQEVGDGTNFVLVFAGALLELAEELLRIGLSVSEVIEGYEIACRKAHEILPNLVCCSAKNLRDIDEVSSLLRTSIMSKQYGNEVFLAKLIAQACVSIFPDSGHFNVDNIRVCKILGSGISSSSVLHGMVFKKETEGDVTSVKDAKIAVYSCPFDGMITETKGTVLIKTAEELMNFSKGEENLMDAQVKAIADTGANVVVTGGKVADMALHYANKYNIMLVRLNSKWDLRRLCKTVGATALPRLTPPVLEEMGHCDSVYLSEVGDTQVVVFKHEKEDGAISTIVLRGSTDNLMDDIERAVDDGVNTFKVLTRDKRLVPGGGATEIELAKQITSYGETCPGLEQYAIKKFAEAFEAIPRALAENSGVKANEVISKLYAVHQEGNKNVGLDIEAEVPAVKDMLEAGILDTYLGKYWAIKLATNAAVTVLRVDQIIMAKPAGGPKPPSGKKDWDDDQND
UniProt O95831: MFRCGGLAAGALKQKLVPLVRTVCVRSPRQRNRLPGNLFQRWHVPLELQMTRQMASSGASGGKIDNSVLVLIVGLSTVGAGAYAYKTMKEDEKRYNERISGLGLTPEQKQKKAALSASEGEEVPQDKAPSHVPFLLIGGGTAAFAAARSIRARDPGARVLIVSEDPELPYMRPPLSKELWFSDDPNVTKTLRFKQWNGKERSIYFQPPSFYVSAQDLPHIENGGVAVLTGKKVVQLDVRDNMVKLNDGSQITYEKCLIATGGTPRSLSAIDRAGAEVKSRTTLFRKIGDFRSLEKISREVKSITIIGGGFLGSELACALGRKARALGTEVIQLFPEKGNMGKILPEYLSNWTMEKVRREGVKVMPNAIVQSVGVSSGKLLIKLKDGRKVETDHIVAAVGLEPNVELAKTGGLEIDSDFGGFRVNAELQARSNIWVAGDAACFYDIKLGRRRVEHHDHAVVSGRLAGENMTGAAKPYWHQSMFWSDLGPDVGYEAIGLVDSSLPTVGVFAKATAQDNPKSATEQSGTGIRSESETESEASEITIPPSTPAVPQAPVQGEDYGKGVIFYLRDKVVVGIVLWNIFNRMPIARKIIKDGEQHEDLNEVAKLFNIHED

B1: Ribonuclease H2 subunit B (protein, UniProt Q5TBB1 1-312)
chain: MAAGVDCGDGVGARQHVFLVSEYLKDASKKMKNGLMFVKLVNPCSGEGAIYLFNMCLQQLFEVKVFKEKHHSWFINQSVQSGGLLHFATPVDPLFLLLHYLIKADKEGKFQPLDQVVVDNVFPNCILLLKLPGLEKLLHHVTEEKGNPEIDNKKYYKYSKEKTLKWLEKKVNQTVAALKTNNVNVSSRVQSTAFFSGDQASTDKEEDYIRYAHGLISDYIPKELSDDLSKYLKLPEPSASLPNPPSKKIKLSDEPVEAKEDYTKFNTKDLKTEKKNSKMTAAQKALAKVDKSGMKSIDTFFGVKNKKKIGKV
B2: Ribonuclease H2 subunit C (protein, UniProt Q8TDP1 1-164)
chain: MESGDEAAIERHRVHLRSATLRDAVPATLHLLPCEVAVDGPAPVGRFFTPAIRQGPEGLEVSFRGRCLRGEEVAVPPGLVGYVMVTEEKKVSMGKPDPLRDSGTDDQEEEPLERDFDRFIGATANFSRFTLWGLETIPGPDAKVRGALTWPSLAAAIHAQVPED

What follows are molecules tested against eGFP-RNASEH2A (human) (UniProt O75792) (assay: affinity purification with mass spectrometry; 1 mg whole cell lysate (NP-40 lysis buffer) of HEK293 cells transfected with eGFP-RNASEH2A or eGFP alone (control); GFP-Trap Magnetic Agarose beads, 4 °C, 1 h; washes in 50 mM Tris-HCl pH 7.5, 150 mM NaCl with and without 0.25% NP-40; eluate run on a gel, nano-LC-MS/MS; two sets of immunoprecipitations; hits by log fold change > 1.5 and FDR adjusted p < 0.05 against eGFP alone).
For “T-complex protein 1 subunit theta (from UniProt P50990 1-548)”, the binding was “binds”.
In the case of “Apoptosis-inducing factor 1, mitochondrial (from UniProt O95831)”, the binding is reported as “binds”.
“DnaJ homolog subfamily A member 1 (from UniProt P31689 1-397)” was tested, and the binding was “binds”.
For B1, the binding was “binds”.
B2 was tested, and the binding was “binds”.

Results are given in words; binding and its absence hold for the method and conditions named. Binding seen in cells or lysates may run through a third protein. Here binding means that the protein was enriched with, or labelled near, the bait; the list need not be complete.
